# Article PMC2949623
# Target: T1, KSRP-eCFP (UniProt Q92945)
# T1 sequence: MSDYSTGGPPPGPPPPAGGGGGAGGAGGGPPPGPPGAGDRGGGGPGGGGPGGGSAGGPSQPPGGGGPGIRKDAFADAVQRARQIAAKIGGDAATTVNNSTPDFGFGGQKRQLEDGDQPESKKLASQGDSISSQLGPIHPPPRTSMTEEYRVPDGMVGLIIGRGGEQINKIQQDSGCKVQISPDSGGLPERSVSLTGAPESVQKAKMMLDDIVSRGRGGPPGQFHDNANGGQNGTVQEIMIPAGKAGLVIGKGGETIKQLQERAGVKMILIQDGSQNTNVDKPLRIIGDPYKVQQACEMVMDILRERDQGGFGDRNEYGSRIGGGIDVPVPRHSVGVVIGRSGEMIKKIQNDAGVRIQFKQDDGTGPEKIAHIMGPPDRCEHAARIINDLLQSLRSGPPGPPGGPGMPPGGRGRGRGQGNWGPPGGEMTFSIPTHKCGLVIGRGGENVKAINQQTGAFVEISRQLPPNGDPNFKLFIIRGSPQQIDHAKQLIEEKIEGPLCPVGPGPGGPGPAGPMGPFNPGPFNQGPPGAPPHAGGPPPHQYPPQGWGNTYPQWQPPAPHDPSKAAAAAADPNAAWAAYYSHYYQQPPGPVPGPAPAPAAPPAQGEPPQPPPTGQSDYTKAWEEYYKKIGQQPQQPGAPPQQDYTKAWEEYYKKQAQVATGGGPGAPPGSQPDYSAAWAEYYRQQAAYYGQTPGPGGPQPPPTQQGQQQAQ
# Assay: FRET or BRET; traditional FRET between eCFP and eYFP tagged proteins transiently transfected into DDT1-MF2 cells; FRETc images of live or fixed cells, room temperature; control cells, 0.5 mM sodium arsenite 30 min, or 75 nM anisomycin 24 h
substance,measurement,value
TIA-1-eYFP,binding,binds

# No constants are given. Whether binding was seen depends on the method and setting. Binding seen in cells or lysates may run through a third protein. Binding calls can cover weak binding; strength is not graded here. Where a sequence is shown, tags or fusion partners need not be part of it.
